Literature values in paper PMC4481117 (Molecular Pain, 2015).

Details: estimated; cited from earlier work

## CC[C@H](C)[C@H](NC(=O)[C@H](CCCNC(=N)N)NC(=O)[C@H](CCCNC(=N)N)NC(=O)[C@H](CC(C)C)NC(=O)[C@H](Cc1ccccc1)NC(=O)CNC(=O)CNC(=O)[C@@H](N)Cc1ccc(O)cc1)C(=O)N[C@@H](CCCNC(=N)N)C(=O)N1CCC[C@H]1C(=O)N[C@@H](CCCCN)C(=O)N[C@@H](CC(C)C)C(=O)N[C@@H](CCCCN)C(=O)N[C@@H](Cc1c[nH]c2ccccc12)C(=O)N[C@@H](CC(=O)O)C(=O)N[C@@H](CC(N)=O)C(=O)N[C@@H](CCC(N)=O)C(=O)O [Dyn A]
  Concentration of Dyn A within dense core vesicles of neurons: 1 mM
